Data from PubChem BioAssay AID602313 (National Center for Advancing Translational Sciences (NCATS), 2012).
Out of some 390,000 compounds screened, about 760 (0.19%) were called active. The inconclusive results got no clear call from the source; some entries with a clear call stand among them for comparison. Calls follow the shape of the dose curve; as a rule, active = well fitted inhibition curve with a large enough effect; inconclusive = small, poorly fitted or top-dose-only effect; inactive = flat fitted curve, though single readings scatter. Potencies of inconclusive entries are doubtful fits and often do not repeat.
Potency is read from the fitted curve at half-maximal effect.

Experiment: qHTS for Inhibitors of Vif-A3F Interactions: qHTS; also: nearly all actives have a fitted effect of over 65% in size; as to activity, negative = active: % of control where 0% means no effect
Settings: HeLa A3F-eYFP + Vif (tagged APOBEC3F with the HIV-1 protein that degrades it), YFP fluorescence increase; series mostly up to 46.1 µM; activity, negative = active: at the top concentration
In short: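 HeLa cells stably expressing A3F-eYFP plus Vif, plated and incubated overnight at 37 deg C, then exposed to compounds overnight at 37 deg C. Blocked degradation read as raised yellow fluorescence (Ex 488/Em 500-530).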
For CCC(=O)NC(=S)Nc1ccc(NC(=O)c2ccc(Br)o2)cc1, the “activity, negative = active” value was inactive: 1.81%.
In the case of Oc1ccccc1C1=NN(c2ccccc2)C(c2ccc(F)cc2)C1 (stereo unspecified), the Potency is reported as inconclusive: 5.62 µM [inhibitor, single point].
With CCCCC(C)n1[nH]c(=O)cc1N (stereo unspecified) the Potency was inconclusive: 6.31 µM [inhibitor, single point].
With CSc1nc(-c2ccc(N(C)C)cc2)c(C#N)c(=O)n1C the Potency was inconclusive: 20 µM [inhibitor, partial curve, poor fit].
For COc1cc(OC)cc(C(=O)NCc2ccc3[nH]c(C)cc3c2)c1, the “activity, negative = active” value was inactive: 5.13%.
With Nc1nc(SCc2ccccc2Cl)nc2nc3c(cc12)CCCC3 the Potency was inconclusive: 35.5 µM [inhibitor, single point].
With Cc1ccc(-n2c(-c3ccco3)nc3nc4ccccc4nc32)cc1 the Potency was inconclusive: 20 µM [inhibitor, single point].
With CCCC(C(=O)NC(C)(C)C)N(CCN1CCOCC1)C(=O)CNS(=O)(=O)c1ccccc1 (stereo unspecified) the Potency was inconclusive: 25.1 µM [inhibitor, single point].
With CNC(=O)c1nnn(Cc2ccccc2)c1NC(C)=O the Potency was inconclusive: 2.51 µM [inhibitor, partial curve, poor fit].
With Cc1ccsc1/C=C1/CN(C)Cc2c1nc1ccccc1c2C(=O)O the Potency was inconclusive: 15.8 µM [inhibitor, single point].
With Cc1cc(-n2c(SCC(=O)Nc3ccc(Br)cc3)nc3n[nH]c(C)c3c2=N)ccc1Cl the Potency was inconclusive: 12.6 µM [inhibitor, partial curve].
With COc1ccccc1NC(=O)Nc1cccc(NC(C)=O)c1 the Potency was inconclusive: 31.6 µM [inhibitor, single point].
In the case of COc1ccc(NC(=O)Cn2ccn(-c3ccccc3)c(=O)c2=O)cc1, the “activity, negative = active” value is reported as inactive: 1.97%.
For CC(C)(C)N(CC#CCC(O)(c1ccccc1)C1CCCC1)CCO (stereo unspecified), the Potency was inconclusive: 12.6 µM [inhibitor, partial curve, poor fit].
With COCCCn1c(=O)/c(=C\c2ccccc2OC(F)F)s/c1=C(/C#N)C(=O)NC(C)C the Potency was inconclusive: 10 µM [inhibitor, partial curve].
For Clc1ccc(-c2cn(-c3ccccc3)c3[n+]2CCS3)cc1, the “activity, negative = active” value was inactive: -3.99%.
In the case of CN(CC(=O)Nc1ccccc1Cl)C(=O)CSc1nncs1, the Potency is reported as inconclusive: 3.16 µM [inhibitor, partial curve, poor fit].
With O=C(/C(=C(\[O-])c1ccccc1)[n+]1ccc2ccccc2c1)c1ccc(Cl)cc1 the Potency was inconclusive: 25.1 µM [inhibitor, single point].
With C=CCOc1ccc(C2C(C(=O)c3ccco3)=C(O)C(=O)N2c2nnc(C)s2)cc1 (stereo unspecified) the “activity, negative = active” value was inactive: -23.4%.
In the case of CN(C)/N=C/c1ccc(/C=N/NC(N)=S)o1, the Potency is reported as inconclusive: 8.91 µM [inhibitor, partial curve, poor fit].
With CC(=O)c1ccc(NC(=O)CSc2nc3[nH]ncc3c(=O)[nH]2)cc1 the Potency was inconclusive: 35.5 µM [inhibitor, single point].
In the case of CCCN(CCC)CC(O)Cn1cc(/C=C/C(=O)c2ccc(OCC)cc2)c2ccccc21 (stereo unspecified), the Potency is reported as inconclusive: 22.4 µM [inhibitor, single point].
With CN1CCN(C(=O)Nc2ccc([N+](=O)[O-])cc2)CC1 the Potency was inconclusive: 3.55 µM [inhibitor, single point].
In the case of COc1cccc2c1NC(C(=O)O)C1CC=CC21 (stereo unspecified), the Potency is reported as inconclusive: 25.1 µM [inhibitor, single point].
With Cc1ccc(S(=O)(=O)CCC(=O)Nc2nnc(-c3cccs3)o2)cc1 the Potency was inconclusive: 2.82 µM [inhibitor, partial curve, poor fit].
With C=CCNC(=O)/C(C#N)=C/c1ccccc1OCc1ccc(C(=O)OC)cc1 the Potency was inconclusive: 17.8 µM [inhibitor, single point].
In the case of O=C1N(Cc2cccnc2)C[C@@H]2C[C@@H](c3ccc(-c4ccccc4)cc3)N3CCC[C@@]123, the Potency is reported as inconclusive: 17.8 µM [inhibitor, single point].
For Clc1c(CSc2nc3ccccc3o2)nc2ccccn12, the Potency was inconclusive: 35.5 µM [inhibitor, single point].
With CCOC(=O)c1cc2c(=O)n3ccccc3nc2n(Cc2ccco2)c1=NC(=O)c1ccccc1OC the Potency was inconclusive: 35.5 µM [inhibitor, single point].
In the case of CC(=O)NCc1ccc(-c2nc3ccccc3s2)cc1, the “activity, negative = active” value is reported as inactive: -7.21%.
In the case of Cc1cc(=O)[nH]c(N=N/C(=N/Nc2ccc(O)cc2)c2ccccc2)n1, the “activity, negative = active” value is reported as inactive: -1.55%.
With O=c1c2ccccc2sc2ccc(NCCCN3CCOCC3)cc12 the Potency was active: 22.4 µM.
With CCc1ccccc1NC(=O)c1cnn2c(C(F)(F)F)cc(-c3ccc(OC)c(OC)c3)nc12 the Potency was inconclusive: 5.62 µM [inhibitor, single point].
In the case of Cc1ccc(-c2cc(-c3ccc(C)o3)nc(N)c2C#N)cc1, the Potency is reported as inconclusive: 22.4 µM [inhibitor, single point].
For O=C(CC(=O)Nc1ccccc1C(F)(F)F)Nc1ccccc1C(F)(F)F, the Potency was inconclusive: 35.5 µM [inhibitor, single point].
In the case of O=C(CN(Cc1ccccc1)C(=O)CNS(=O)(=O)c1ccc(F)cc1)NCc1ccco1, the Potency is reported as inconclusive: 17.8 µM [inhibitor, single point].
In the case of CC(=O)c1ccc(S(=O)(=O)N2CCN(CCOc3ccc(Br)cc3)CC2)cc1, the Potency is reported as inconclusive: 35.5 µM [inhibitor, single point].
In the case of Cc1csc(NC(=O)CCC(=O)N(CC(=O)NC2CCCC2)Cc2ccccc2)n1, the Potency is reported as active: 11.2 µM.
In the case of COc1ccc(C(C(=O)NC(C)(C)C)N(C(=O)CCC(=O)Nc2cc(C)on2)c2ccccc2F)cc1 (stereo unspecified), the Potency is reported as inconclusive: 6.31 µM [inhibitor, single point].
In the case of Cc1cccn2c(=O)c(/C=C3\SC(=S)NC3=O)c(NCCCN3CCOCC3)nc12, the Potency is reported as inconclusive: 7.08 µM [inhibitor, partial curve, poor fit].
For Cc1cc(C)nc(S/C=C/C(=O)c2ccccc2)n1, the Potency was inconclusive: 0.355 µM [inhibitor, full curve, poor fit].
With C=CCn1c(O)c(C=Nc2ccccc2)sc1=S the Potency was inconclusive: 35.5 µM [inhibitor, single point].
With CCN(CC)CCn1c2ccccc2c2nc3ccccc3nc21 the Potency was inconclusive: 35.5 µM [inhibitor, single point].
With COc1ccc(C)cc1NCc1cc(=O)oc2cc(-c3ccccc3)c(O)cc12 the Potency was inconclusive: 22.4 µM [inhibitor, single point].
With O=[N+]([O-])c1ccc(O)c2ncccc12 the Potency was inconclusive: 22.4 µM [inhibitor, partial curve, poor fit].
For c1ccc(CNc2nc(N3CCOCC3)nc(N3CCOCC3)n2)cc1, the “activity, negative = active” value was inactive: 6.6%.
In the case of Cc1ccccc1/C=C\c1nc2ccccc2c(=O)n1Cc1ccccc1, the “activity, negative = active” value is reported as inactive: 1.64%.
In the case of Oc1cnc2ccccc2c1CN1CCOCC1, the “activity, negative = active” value is reported as inactive: -11.1%.
In the case of CCn1cnnc1SCC(=O)c1c(N)n(C2CC2)c(=O)[nH]c1=O, the Potency is reported as inconclusive: 11.2 µM [inhibitor, partial curve, poor fit].
For N#Cc1nc(COc2ccccc2Cl)oc1NCc1cccnc1, the “activity, negative = active” value was inactive: -14.2%.
With Nc1c(C(=O)NCc2ccc3c(c2)OCO3)nnn1CC(=O)Nc1ccc(Br)cc1 the Potency was inconclusive: 17.8 µM [inhibitor, single point].
With C/C(=N\NC(=O)c1ccccc1O)C1C(=O)c2ccccc2C1=O the “activity, negative = active” value was inactive: 1.1%.
For COc1ccc(-c2cc3ccccc3oc2=O)cc1NC(=S)NC(=O)c1ccc2c(c1)OCCO2, the Potency was inconclusive: 11.2 µM [inhibitor, partial curve].
With O=C(NCc1cccc(F)c1)c1cccc2c1C(=O)c1ccc(N3CCOCC3)cc1S2(=O)=O the Potency was inconclusive: 35.5 µM [inhibitor, single point].
With CCOC(=O)C1CCN(C(=O)CN2C(=O)c3ccccc3S2(=O)=O)CC1 the Potency was inconclusive: 3.16 µM [inhibitor, single point].
In the case of COc1ccc(C(=O)c2c3ccc([N+](=O)[O-])cc3[n+]([O-])n2CCCC(N)=O)cc1, the Potency is reported as inconclusive: 20 µM [inhibitor, partial curve, poor fit].
In the case of O=C(NCc1cccnc1)c1cccc(S(=O)(=O)N2CCOCC2)c1, the Potency is reported as inconclusive: 20 µM [inhibitor, single point].
With O=C(Nc1ccc(Cl)cc1C(F)(F)F)C(Sc1cccc[n+]1[O-])c1ccccc1 (stereo unspecified) the Potency was inconclusive: 15.8 µM [inhibitor, single point].
With CCc1nn2c(-c3ccco3)ccnc2c1-c1ccccc1 the Potency was inconclusive: 35.5 µM [inhibitor, single point].
In the case of CCOC(=O)N1CCN(C(=O)c2ccc3c(=O)n(-c4cc(OC)ccc4OC)c(=S)[nH]c3c2)CC1, the Potency is reported as inconclusive: 11.2 µM [inhibitor, partial curve, poor fit].
For CC(C)=CCN1CCN(Cc2cc(CC(C)C)n[nH]2)CC1CCO (stereo unspecified), the Potency was inconclusive: 17.8 µM [inhibitor, partial curve, poor fit].
In the case of O=C(NCc1ccccc1Cl)c1cnc(N2CCCCC2)c2ccccc12, the “activity, negative = active” value is reported as inactive: 2.89%.
In the case of CC(Cc1cccs1)NC(=O)Nc1ccc(F)cc1 (stereo unspecified), the “activity, negative = active” value is reported as inactive: 0.969%.
With Cc1ccc(C2=NN(S(C)(=O)=O)C(c3cccs3)C2)cc1 (stereo unspecified) the “activity, negative = active” value was inactive: 11.7%.
For Cc1sc2c3ccsc3ccc2[n+]1C, the Potency was inconclusive: 35.5 µM [inhibitor, partial curve, poor fit].
With CCCCn1c(SCC(=O)Nc2cc(C)on2)nnc1-c1ccncc1 the Potency was inconclusive: 3.55 µM [inhibitor, partial curve, poor fit].
